# Values of other authors, collected in patent publication US11682473B2, “Skin permeability prediction” (priority 2016, dated 2023).
# Where two headings read alike, the source gives them in different places.
# Details: for log KPexp: uncorrected literature value (permeabilities in cm/h)
smiles,measurement,setting,value
"COc1ccc2cc([C@H](C)C(=O)O)ccc2c1 [Naproxen, naproxen]",log KPexp,Texp 25 °C,−3.40
same,log KPexp,Texp 37 °C,−2.54
same,log Kp303K,"experimental literature values (in vitro diffusion cells), averaged over sources, temperature-corrected to 303 K",−3.0 cm/h
